Here are results for two sequences from paper PMC9243095.

Chains of the proteins cited; added tags and fusions are not shown. Lines headed by an entry give the natural chain unless they say otherwise; changes in a name come on top.
UniProt Q9T0D3: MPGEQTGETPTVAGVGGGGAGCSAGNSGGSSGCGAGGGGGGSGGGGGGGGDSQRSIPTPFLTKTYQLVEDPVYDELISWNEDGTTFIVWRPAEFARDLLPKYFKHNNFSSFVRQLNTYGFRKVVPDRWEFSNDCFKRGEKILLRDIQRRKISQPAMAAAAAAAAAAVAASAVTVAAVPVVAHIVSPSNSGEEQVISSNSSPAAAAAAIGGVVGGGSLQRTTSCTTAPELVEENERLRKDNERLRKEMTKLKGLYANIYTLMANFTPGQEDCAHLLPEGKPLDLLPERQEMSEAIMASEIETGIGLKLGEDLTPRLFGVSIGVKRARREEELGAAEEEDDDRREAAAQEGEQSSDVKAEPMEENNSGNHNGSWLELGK

The exact form of at least one protein or probe is not confirmed. No signal at the amounts used counts as a negative.

For the data set, the target named is MBP-HsfB2bDBD (Arabidopsis thaliana) (UniProt Q9T0D3). Description: EMSA. The conditions noted are these: 5 uM protein, 100 nM probe; 10 mM Tris-HCl pH 7.5, 50 mM NaCl, 1 mM EDTA, 5% glycerol, 5 mM DTT, room temperature; 6% polyacrylamide gel, 0.5X TBE; recombinant protein; protein details: N-terminal MBP (pMAL-c2); label: 5'-Cy5 on strand 1. In general terms: In EMSA bound probe runs differently from free probe, usually more slowly.

“TTTCCTCCTTAAAAACATTTAAAAAAAACAAAAGGAGAGA (double strand) [mHSE probe]”: the binding result is recorded as “no binding”.

In the case of “TTTCCTCCTTAGAAACATCTAGAAAAAACAAAAGGAGAGA (double strand) [HSE (HSEVIN3) probe]”, the binding result is “binds”.
